Results: the supplement of paper PMC10849652
This is one part of the list.

Protein sequences, listed by entry. Tags and fused reporters are not part of them. Lines headed by an entry give the natural chain unless they say otherwise; changes in a name come on top.
UniProt Q05209: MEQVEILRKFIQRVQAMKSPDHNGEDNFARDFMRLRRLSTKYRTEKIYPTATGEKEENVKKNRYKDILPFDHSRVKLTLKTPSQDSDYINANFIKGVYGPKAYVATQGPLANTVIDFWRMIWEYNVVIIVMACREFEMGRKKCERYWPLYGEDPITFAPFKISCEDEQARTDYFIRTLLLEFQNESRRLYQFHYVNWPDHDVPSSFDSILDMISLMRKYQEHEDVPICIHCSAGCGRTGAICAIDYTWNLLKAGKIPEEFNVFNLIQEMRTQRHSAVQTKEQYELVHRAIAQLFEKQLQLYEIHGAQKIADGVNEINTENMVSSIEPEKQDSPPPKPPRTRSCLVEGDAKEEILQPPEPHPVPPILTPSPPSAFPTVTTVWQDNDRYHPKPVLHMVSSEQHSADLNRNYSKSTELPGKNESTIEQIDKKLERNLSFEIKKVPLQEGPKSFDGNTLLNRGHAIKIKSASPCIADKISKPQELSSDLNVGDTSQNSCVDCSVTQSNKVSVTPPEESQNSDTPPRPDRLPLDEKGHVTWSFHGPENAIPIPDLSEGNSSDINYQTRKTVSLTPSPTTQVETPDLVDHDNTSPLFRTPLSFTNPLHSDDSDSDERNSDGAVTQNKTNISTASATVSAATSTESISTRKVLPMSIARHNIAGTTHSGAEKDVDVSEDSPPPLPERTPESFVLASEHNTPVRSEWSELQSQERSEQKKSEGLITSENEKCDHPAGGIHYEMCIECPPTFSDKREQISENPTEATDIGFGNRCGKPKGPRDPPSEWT
UniProt Q8WUK0: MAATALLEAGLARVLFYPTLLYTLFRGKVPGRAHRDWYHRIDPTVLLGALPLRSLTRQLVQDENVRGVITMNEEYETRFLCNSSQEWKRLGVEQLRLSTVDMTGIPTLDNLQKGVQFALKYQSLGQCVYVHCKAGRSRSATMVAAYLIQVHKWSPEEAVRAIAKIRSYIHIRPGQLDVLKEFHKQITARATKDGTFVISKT
UniProt P20962: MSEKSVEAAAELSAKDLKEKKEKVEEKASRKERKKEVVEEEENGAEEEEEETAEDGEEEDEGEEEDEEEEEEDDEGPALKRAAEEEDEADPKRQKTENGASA
UniProt Q15269: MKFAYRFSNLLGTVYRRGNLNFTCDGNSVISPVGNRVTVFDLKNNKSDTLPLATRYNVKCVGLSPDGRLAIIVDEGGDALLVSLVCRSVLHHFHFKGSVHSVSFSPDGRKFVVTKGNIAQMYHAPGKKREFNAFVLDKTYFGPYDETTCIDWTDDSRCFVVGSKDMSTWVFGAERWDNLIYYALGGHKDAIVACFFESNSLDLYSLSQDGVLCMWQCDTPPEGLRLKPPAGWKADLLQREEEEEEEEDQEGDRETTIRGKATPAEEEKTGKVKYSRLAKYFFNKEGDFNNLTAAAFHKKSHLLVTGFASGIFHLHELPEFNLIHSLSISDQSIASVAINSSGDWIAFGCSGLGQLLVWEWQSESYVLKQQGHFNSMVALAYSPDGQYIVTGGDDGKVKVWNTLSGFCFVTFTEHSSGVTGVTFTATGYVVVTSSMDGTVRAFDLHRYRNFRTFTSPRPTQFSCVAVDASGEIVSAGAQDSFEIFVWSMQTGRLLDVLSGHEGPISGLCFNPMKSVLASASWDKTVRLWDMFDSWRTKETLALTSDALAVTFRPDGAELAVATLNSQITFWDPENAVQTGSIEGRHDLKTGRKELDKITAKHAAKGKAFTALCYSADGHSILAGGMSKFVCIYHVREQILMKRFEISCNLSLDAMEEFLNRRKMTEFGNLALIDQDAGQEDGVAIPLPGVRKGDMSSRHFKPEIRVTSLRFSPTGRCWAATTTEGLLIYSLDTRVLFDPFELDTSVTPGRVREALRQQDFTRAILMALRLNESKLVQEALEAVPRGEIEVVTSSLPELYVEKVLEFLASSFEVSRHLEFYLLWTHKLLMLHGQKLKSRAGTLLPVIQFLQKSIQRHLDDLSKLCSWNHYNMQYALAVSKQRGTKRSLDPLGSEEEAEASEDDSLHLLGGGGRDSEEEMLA
UniProt Q96BW5: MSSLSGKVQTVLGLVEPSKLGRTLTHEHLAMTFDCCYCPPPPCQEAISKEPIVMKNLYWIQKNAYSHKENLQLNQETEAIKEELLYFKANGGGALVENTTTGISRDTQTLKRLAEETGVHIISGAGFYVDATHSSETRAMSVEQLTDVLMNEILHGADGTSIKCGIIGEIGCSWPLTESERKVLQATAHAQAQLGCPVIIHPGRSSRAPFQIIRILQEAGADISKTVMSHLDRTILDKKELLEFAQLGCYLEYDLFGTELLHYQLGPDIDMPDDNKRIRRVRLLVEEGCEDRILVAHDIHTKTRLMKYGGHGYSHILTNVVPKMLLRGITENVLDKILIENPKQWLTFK
UniProt Q9UNM6: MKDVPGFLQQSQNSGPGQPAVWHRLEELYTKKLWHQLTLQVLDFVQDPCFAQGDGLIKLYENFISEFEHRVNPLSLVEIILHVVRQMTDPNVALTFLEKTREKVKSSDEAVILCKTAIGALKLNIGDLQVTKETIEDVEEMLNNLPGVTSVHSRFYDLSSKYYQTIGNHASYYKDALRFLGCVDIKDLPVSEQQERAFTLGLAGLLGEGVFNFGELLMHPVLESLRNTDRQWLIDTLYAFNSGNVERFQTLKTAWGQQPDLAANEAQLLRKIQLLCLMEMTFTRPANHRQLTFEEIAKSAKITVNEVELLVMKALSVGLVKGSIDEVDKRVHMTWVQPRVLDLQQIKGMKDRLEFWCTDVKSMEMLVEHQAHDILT
UniProt P62195, whole entry, looked up: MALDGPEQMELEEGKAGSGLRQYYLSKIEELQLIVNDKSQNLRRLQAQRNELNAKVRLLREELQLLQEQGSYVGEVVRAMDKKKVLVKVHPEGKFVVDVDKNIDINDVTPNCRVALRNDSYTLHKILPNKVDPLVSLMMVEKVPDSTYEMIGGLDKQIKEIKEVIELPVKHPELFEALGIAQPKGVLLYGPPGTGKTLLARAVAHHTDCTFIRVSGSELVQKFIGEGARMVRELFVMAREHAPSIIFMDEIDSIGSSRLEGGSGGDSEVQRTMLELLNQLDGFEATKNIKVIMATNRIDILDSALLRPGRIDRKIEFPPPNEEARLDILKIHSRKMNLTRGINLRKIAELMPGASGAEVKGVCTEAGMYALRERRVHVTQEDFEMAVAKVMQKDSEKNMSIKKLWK
UniProt Q6GMV3: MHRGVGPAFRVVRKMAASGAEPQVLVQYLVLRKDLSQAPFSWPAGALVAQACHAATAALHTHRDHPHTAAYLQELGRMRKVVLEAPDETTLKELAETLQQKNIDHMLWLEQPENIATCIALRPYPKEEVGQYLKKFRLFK
UniProt Q9BVG9: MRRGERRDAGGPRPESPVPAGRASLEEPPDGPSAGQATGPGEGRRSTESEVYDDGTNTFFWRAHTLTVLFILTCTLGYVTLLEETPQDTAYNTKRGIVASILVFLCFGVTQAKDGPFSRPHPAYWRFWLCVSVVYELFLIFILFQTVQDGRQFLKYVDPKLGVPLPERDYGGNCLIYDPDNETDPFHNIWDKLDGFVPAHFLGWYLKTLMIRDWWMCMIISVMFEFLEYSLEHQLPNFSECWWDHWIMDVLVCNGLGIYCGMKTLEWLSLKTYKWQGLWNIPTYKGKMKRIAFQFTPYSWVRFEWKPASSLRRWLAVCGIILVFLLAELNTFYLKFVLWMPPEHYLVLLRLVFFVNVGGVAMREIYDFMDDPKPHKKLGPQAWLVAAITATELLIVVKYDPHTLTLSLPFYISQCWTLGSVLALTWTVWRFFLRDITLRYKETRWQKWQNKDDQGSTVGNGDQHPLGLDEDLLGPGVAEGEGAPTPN
UniProt Q96PU8: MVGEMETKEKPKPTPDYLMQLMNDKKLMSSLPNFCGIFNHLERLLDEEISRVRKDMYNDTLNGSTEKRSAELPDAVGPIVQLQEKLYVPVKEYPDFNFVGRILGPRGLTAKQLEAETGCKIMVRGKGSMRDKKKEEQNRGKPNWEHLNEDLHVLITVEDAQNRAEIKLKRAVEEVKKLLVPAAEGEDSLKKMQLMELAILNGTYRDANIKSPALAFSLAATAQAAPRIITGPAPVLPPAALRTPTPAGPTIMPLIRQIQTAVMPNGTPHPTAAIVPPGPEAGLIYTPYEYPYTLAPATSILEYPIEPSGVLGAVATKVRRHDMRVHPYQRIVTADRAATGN
UniProt Q9H939: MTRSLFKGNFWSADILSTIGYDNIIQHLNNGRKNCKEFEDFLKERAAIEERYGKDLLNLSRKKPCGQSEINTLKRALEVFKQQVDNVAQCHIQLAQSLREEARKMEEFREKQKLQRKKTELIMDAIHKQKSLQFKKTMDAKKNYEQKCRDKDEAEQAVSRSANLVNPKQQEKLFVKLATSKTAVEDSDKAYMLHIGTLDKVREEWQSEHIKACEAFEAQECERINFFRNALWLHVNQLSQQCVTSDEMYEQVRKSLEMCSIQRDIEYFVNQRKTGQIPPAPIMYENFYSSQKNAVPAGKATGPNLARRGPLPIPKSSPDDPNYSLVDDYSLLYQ
UniProt P25786: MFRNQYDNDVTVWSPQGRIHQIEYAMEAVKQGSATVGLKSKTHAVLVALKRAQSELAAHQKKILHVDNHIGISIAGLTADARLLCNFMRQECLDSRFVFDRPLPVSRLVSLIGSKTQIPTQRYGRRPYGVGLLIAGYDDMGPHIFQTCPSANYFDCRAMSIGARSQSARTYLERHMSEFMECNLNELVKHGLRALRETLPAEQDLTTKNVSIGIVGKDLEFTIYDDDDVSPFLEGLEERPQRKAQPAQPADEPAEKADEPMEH
UniProt Q14289, whole entry, looked up: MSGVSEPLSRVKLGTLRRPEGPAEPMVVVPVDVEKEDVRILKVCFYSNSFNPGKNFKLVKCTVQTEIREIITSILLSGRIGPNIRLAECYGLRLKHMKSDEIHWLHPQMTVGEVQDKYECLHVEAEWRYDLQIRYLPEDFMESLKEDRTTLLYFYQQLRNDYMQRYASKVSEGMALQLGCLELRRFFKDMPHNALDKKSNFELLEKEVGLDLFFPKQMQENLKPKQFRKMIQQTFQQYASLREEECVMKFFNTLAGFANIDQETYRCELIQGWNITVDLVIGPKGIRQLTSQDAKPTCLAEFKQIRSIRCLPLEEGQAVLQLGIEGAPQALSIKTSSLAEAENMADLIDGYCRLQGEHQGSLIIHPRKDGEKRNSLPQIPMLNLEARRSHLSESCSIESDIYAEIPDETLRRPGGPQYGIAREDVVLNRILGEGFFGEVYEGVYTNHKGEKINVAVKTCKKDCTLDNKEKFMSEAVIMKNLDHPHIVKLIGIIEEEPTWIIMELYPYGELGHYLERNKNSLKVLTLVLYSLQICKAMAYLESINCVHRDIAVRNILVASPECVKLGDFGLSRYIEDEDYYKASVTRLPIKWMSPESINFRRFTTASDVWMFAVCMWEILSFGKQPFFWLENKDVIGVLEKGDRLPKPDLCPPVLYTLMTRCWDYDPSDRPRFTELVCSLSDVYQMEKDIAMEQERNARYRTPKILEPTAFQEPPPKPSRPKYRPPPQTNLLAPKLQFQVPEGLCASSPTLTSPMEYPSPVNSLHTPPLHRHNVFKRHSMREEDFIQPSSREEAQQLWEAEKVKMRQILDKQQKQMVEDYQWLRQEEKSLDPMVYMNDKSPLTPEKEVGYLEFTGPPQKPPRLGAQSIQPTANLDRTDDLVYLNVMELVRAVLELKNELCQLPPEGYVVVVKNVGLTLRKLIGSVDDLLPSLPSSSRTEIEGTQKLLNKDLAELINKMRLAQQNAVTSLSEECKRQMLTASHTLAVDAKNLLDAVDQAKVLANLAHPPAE
UniProt Q8TBF2: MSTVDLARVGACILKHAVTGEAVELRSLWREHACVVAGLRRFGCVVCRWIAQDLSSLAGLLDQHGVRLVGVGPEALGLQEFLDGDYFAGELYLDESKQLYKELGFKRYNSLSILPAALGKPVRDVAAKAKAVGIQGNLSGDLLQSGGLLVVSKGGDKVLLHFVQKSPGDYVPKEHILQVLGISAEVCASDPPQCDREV
UniProt P25787: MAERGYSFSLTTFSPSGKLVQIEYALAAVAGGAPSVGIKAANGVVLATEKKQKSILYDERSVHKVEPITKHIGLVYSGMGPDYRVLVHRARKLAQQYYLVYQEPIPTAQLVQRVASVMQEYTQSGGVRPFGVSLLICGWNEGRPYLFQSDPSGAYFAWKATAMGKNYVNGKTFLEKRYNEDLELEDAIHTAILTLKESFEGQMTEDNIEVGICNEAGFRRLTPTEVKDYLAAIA
UniProt Q15008: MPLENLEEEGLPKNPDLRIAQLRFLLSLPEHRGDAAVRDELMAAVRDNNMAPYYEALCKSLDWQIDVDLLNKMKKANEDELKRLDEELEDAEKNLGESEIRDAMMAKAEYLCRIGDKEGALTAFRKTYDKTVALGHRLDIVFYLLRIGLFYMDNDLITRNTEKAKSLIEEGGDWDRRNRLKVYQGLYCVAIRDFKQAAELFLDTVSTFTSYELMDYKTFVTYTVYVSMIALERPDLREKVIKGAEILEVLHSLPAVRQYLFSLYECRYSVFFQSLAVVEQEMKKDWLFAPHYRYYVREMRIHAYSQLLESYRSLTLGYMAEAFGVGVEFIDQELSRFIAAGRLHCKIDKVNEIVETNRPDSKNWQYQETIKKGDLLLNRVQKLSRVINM

Each target was assayed with Cn1cncc1[C@@](N)(c1ccc(Cl)cc1)c1ccc2c(c1)c(-c1cccc(Cl)c1)cc(=O)n2C [tipifarnib] (assay: log2 fold change, soluble protein after heating vs DMSO (PISA); higher = thermal stabilisation; K562 cells, 10 uM, 30 min; active = over 0.2 and 3.5 SD of the protein, either way, in both replicates (recomputed)).
Summary of the method: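 K562 cells at 2×10^6 cells/mL were given 10 μM compound for 30 min. Aliquots then went through 3 min of heating across 48°C-58°C, were pooled, and were extracted in PBS with 0.5% NP-40 at 4°C, and the supernatant after 21,000xg for 90 min was quantified by TMTpro 16plex LC-MS/MS with channel sums equalised. Thermal stability relative to control samples, from duplicates, is given as log2 fold change.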
In the case of PUS10 (UniProt Q3MIT2), the log2 fold change was inactive: -0.007.
PTPN12 (UniProt Q05209) was tested, and the log2 fold change was inactive: -0.081.
PSMC1 (UniProt P62191) was tested, and the log2 fold change was inactive: 0.087.
For PTPMT1 (UniProt Q8WUK0), the log2 fold change was inactive: 0.026.
For PTMS (UniProt P20962), the log2 fold change was inactive: 0.037.
With PUM2 (UniProt Q8TB72) the log2 fold change was inactive: 0.018.
PWP2 (UniProt Q15269) was tested, and the log2 fold change was inactive: 0.05.
For PTER (UniProt Q96BW5), the log2 fold change was inactive: -0.013.
PSMD13 (UniProt Q9UNM6) was tested, and the log2 fold change was inactive: 0.095.
QTRT2 isoform 4 (UniProt Q9H974) was tested, and the log2 fold change was inactive: -0.007.
For PSMC5 (UniProt P62195), the log2 fold change was inactive: 0.09.
In the case of PTRHD1 (UniProt Q6GMV3), the log2 fold change was inactive: 0.028.
In the case of PTDSS2 (UniProt Q9BVG9), the log2 fold change was inactive: -0.031.
PTAR1 (UniProt Q7Z6K3) was tested, and the log2 fold change was inactive: 0.092.
In the case of QKI (UniProt Q96PU8), the log2 fold change was inactive: -0.015.
In the case of PSTPIP2 (UniProt Q9H939), the log2 fold change was inactive: -0.003.
With PSMA1 isoform 2 (UniProt P25786) the log2 fold change was inactive: 0.071.
In the case of PTK2B (UniProt Q14289), the log2 fold change was inactive: -0.521.
PWP1 (UniProt Q13610) was tested, and the log2 fold change was inactive: 0.193.
For PRXL2B isoform 3 (UniProt Q8TBF2), the log2 fold change was inactive: -0.017.
In the case of PTDSS1 (UniProt P48651), the log2 fold change was inactive: 0.018.
For PSMA2 (UniProt P25787), the log2 fold change was inactive: 0.03.
In the case of PSMD6 (UniProt Q15008), the log2 fold change was inactive: 0.03.
